Experimental data taken from PubChem BioAssay AID296 (DTP/NCI, 2004).
The list shows only some results of the screen, not a fair sample: it gathers some chemical classes. Other doses and runs of a compound may be missing. T/C is the treated group as % of the vehicle group. Schedules are NCI's codes, read here as Q, the interval in days (D) or hours (H), X, the number of doses. Some values lie below zero, which means that the treated tumours became smaller. Some doses were run more than once; their values stand side by side, smallest first.

Tested on: MX-1 breast xenograft, nude mice, tumor weight T/C
Assay: NCI In Vivo Anticancer Drug Screen. Data for tumor model Human Mammary Carcinoma MX-1 Xenograft (intrarenal inoculation) in NU/NU Swiss (nude) mice
Conditions: T/C endpoint: mean tumor weight change, schedule: Q01DX010 (sc), vehicle: saline, evaluated on day 11, higher T/C = larger tumour
Protocol: The antitumor activity of compounds was measured in mice bearing transplantable tumors. Survival or tumor size were measured and the results are expressed as the measurement made in the treated group (T) divided by the measurement made in the vehicle treated control group (C). The tumor model used in this assay is Human Mammary Carcinoma MX-1 Xenograft (intrarenal inoculation) in NU/NU Swiss (nude) mice

`CN(CCCl)CCCl` was tested, and the T/C (dose: 0.06 mg/kg/injection) was 83 % of control, the T/C (dose: 0.13 mg/kg/injection) was 25 and 28 % of control and the T/C (dose: 0.25 mg/kg/injection) was -85 and 1 % of control. The T/C (dose: 0.5 mg/kg/injection) was -67 % of control.
